The list shows a part of the results.
Compound: c1cn2cc(-c3ccc4cn[nH]c4c3)nc(Nc3ccc(N4CCOCC4)cc3)c2n1 [entospletinib]
Assay: log2 fold change, soluble protein after heating vs DMSO (PISA); higher = thermal stabilisation; K562 cells, 10 uM, 30 min; active = over 0.2 and 3.5 SD of the protein, either way, in both replicates (recomputed)
Summary of the method: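 Aliquots of K562 cells (2×10^6 cells/mL) treated with 10 μM compound for 30 min were heated for 3 min over 48°C-58°C. After pooling and extraction in PBS with 0.5% NP-40 at 4°C, soluble protein from a 21,000xg, 90 min spin was quantified by TMTpro 16plex LC-MS/MS with channel sums equalised. Thermal stability is expressed against control samples, from duplicates, as a log2 fold change.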

Chains of the proteins cited; added tags and fusions are not shown. Lines headed by an entry give the natural chain unless they say otherwise; changes in a name come on top.
UniProt P31949: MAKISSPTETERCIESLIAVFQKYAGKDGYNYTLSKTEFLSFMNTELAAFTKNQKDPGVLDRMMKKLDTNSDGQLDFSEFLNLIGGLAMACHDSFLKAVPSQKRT
UniProt P29034: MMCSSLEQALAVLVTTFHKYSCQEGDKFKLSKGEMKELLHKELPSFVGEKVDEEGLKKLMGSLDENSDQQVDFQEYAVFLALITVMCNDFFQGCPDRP
UniProt Q9NQC3: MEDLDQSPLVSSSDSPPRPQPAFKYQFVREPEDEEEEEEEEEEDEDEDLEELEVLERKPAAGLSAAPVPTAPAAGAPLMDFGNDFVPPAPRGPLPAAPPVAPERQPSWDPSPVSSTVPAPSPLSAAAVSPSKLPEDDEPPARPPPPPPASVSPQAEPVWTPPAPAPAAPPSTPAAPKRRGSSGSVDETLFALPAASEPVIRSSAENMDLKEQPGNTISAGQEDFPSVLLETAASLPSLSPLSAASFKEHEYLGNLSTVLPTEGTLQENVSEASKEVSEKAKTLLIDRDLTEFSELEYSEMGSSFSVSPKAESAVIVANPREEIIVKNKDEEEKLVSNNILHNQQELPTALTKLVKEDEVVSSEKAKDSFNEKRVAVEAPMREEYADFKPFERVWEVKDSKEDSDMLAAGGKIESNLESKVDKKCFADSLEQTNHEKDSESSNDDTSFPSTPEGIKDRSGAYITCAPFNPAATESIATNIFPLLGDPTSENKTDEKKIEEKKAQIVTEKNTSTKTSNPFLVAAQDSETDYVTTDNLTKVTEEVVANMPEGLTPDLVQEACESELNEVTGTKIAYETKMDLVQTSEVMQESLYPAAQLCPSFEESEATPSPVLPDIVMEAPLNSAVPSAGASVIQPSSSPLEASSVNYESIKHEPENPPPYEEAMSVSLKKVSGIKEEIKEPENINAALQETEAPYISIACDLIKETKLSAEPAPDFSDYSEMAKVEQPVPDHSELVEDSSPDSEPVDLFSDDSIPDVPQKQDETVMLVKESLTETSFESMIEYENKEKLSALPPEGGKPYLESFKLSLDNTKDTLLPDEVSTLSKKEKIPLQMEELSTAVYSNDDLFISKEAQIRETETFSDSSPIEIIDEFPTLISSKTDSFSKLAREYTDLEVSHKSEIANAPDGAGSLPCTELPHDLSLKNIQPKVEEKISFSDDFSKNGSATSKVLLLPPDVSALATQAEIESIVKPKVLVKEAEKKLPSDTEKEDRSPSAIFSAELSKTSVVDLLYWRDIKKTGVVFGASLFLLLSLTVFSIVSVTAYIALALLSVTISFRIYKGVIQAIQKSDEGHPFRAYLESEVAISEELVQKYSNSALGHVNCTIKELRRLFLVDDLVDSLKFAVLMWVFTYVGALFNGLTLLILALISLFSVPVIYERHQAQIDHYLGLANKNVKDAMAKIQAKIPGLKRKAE
UniProt Q96I15: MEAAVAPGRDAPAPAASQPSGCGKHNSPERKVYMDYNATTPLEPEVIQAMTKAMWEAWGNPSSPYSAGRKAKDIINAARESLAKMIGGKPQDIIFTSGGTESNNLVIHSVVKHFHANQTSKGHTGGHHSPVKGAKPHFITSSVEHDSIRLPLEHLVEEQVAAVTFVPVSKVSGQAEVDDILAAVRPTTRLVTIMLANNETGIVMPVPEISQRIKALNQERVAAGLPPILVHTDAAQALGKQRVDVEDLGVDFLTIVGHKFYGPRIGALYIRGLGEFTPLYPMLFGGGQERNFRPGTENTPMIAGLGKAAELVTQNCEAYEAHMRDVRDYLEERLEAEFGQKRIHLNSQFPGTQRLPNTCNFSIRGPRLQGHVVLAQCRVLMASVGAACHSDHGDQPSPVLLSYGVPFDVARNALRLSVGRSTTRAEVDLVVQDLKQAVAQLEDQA
UniProt O75845: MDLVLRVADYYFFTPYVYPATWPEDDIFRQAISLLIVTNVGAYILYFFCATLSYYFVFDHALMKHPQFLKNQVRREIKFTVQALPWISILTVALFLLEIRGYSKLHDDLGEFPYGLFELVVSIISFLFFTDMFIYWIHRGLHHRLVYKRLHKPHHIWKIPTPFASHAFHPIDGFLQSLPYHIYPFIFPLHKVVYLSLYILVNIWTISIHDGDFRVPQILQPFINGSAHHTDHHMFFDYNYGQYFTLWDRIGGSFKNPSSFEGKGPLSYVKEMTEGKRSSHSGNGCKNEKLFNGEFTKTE
UniProt Q14108: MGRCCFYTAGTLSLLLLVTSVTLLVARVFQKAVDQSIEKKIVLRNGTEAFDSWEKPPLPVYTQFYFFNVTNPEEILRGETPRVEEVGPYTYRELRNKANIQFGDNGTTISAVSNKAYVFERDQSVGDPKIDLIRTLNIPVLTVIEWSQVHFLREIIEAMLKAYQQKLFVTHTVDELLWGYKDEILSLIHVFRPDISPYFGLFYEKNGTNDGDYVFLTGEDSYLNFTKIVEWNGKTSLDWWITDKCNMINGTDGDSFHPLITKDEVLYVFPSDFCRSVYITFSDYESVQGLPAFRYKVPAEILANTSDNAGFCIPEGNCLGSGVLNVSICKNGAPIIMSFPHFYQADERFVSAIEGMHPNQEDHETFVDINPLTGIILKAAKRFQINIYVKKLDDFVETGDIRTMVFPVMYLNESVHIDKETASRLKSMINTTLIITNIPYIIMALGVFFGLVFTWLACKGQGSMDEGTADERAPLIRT
UniProt P53992: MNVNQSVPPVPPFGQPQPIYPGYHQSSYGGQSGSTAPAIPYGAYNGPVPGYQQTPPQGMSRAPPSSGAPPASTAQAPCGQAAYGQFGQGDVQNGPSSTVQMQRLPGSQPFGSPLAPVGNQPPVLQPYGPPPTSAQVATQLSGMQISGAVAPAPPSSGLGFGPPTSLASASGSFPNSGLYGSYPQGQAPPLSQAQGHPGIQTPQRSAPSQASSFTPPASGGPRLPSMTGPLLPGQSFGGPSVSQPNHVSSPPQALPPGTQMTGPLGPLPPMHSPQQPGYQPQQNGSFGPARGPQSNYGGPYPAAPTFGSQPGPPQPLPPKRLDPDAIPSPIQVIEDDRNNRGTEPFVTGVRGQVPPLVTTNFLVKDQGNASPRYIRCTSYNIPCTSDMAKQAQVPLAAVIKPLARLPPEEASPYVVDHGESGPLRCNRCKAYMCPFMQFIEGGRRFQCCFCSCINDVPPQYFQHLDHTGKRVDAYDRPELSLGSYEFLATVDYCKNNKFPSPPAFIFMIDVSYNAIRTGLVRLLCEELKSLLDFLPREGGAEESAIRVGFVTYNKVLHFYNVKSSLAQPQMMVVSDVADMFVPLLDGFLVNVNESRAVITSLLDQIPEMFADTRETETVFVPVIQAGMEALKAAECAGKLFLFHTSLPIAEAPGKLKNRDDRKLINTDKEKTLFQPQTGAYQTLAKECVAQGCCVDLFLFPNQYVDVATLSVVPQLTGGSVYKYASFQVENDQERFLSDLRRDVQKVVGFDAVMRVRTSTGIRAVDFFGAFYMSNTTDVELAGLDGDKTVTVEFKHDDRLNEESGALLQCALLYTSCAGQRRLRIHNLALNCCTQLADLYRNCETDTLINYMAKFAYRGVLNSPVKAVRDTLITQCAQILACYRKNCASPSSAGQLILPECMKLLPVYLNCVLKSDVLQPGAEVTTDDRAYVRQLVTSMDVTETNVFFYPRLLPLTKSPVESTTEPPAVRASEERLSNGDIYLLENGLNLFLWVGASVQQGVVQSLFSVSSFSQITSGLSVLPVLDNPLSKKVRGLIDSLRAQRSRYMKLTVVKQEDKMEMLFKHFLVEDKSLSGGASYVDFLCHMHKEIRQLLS
UniProt Q9Y6U3: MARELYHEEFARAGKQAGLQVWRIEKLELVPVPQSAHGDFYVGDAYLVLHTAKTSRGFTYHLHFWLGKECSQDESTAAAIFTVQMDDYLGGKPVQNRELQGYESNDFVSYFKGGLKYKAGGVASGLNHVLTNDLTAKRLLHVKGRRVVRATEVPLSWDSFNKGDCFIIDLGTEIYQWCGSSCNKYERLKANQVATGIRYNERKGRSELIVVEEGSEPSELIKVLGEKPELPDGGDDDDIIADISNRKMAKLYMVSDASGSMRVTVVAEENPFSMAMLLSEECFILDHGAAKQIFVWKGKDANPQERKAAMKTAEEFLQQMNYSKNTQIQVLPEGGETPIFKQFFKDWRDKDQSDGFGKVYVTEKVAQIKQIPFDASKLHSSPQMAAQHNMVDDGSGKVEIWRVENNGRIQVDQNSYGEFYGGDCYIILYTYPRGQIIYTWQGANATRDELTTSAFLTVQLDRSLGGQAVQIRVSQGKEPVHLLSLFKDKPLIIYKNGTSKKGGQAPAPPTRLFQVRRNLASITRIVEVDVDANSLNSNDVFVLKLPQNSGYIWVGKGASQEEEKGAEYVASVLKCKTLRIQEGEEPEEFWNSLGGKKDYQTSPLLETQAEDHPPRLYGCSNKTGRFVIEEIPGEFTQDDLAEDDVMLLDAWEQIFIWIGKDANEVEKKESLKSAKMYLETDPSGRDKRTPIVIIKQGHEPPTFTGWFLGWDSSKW

Target	log2 fold change
S100A11 (UniProt P31949)	inactive: 0.052
S100A2 (UniProt P29034)	inactive: 0
RTN4 isoform 5 (UniProt Q9NQC3)	inactive: 0.077
SCLY (UniProt Q96I15)	inactive: -0.039
SC5D (UniProt O75845)	inactive: -0.112
SCARB2 (UniProt Q14108)	inactive: -0.003
RSL24D1 (UniProt Q9UHA3)	inactive: 0.122
SEC24C (UniProt P53992)	inactive: 0
SCIN (UniProt Q9Y6U3)	inactive: 0.04

Given as a markdown table: entries from further up

| Target | log2 fold change |
| --- | --- |
| S100A11 (UniProt P31949) | inactive: 0.052 |
| S100A2 (UniProt P29034) | inactive: 0 |

From the supplement of paper PMC10849652
